Laboratory results published in the supplement of paper PMC10849652.
Some of the results follow.

Amino acid sequences for entries named in this document (tags omitted). A change or cut given only in a name is not applied to a line headed by its entry.
UniProt Q9UKE5: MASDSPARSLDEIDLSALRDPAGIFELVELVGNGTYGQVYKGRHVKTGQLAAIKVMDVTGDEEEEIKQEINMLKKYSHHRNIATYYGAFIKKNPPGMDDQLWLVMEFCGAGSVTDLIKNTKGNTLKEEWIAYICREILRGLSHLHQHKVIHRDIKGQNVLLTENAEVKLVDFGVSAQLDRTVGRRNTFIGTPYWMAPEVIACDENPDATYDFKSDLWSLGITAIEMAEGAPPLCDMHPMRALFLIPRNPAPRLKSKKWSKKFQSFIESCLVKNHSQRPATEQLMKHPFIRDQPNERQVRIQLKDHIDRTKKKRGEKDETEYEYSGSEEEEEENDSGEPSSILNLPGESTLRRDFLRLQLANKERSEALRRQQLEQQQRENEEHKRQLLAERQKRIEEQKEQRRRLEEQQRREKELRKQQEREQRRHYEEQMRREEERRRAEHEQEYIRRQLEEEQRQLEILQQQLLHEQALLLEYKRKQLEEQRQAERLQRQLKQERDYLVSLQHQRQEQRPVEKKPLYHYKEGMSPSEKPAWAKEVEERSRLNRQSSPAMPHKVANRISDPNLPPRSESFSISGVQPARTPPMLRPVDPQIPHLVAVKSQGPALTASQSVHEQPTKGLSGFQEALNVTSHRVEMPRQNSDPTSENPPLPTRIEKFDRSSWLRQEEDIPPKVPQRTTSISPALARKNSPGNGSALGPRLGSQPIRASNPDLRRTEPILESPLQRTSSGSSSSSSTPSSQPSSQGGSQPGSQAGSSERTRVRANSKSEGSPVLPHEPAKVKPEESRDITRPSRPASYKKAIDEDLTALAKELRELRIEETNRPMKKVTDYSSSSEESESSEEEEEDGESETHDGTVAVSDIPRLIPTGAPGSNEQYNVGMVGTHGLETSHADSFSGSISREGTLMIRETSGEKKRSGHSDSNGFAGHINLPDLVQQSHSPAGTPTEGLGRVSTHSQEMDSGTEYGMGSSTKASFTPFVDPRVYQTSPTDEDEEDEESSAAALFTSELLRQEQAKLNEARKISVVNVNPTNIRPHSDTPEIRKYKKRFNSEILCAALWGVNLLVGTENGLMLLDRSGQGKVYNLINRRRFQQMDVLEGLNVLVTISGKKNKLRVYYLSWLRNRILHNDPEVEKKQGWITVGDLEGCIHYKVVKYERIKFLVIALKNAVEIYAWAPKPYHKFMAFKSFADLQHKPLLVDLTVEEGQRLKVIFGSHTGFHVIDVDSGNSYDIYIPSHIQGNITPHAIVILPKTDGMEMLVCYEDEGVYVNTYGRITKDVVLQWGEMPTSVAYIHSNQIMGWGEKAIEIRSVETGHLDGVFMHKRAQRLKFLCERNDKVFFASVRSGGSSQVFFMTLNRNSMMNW
UniProt Q9Y2L5: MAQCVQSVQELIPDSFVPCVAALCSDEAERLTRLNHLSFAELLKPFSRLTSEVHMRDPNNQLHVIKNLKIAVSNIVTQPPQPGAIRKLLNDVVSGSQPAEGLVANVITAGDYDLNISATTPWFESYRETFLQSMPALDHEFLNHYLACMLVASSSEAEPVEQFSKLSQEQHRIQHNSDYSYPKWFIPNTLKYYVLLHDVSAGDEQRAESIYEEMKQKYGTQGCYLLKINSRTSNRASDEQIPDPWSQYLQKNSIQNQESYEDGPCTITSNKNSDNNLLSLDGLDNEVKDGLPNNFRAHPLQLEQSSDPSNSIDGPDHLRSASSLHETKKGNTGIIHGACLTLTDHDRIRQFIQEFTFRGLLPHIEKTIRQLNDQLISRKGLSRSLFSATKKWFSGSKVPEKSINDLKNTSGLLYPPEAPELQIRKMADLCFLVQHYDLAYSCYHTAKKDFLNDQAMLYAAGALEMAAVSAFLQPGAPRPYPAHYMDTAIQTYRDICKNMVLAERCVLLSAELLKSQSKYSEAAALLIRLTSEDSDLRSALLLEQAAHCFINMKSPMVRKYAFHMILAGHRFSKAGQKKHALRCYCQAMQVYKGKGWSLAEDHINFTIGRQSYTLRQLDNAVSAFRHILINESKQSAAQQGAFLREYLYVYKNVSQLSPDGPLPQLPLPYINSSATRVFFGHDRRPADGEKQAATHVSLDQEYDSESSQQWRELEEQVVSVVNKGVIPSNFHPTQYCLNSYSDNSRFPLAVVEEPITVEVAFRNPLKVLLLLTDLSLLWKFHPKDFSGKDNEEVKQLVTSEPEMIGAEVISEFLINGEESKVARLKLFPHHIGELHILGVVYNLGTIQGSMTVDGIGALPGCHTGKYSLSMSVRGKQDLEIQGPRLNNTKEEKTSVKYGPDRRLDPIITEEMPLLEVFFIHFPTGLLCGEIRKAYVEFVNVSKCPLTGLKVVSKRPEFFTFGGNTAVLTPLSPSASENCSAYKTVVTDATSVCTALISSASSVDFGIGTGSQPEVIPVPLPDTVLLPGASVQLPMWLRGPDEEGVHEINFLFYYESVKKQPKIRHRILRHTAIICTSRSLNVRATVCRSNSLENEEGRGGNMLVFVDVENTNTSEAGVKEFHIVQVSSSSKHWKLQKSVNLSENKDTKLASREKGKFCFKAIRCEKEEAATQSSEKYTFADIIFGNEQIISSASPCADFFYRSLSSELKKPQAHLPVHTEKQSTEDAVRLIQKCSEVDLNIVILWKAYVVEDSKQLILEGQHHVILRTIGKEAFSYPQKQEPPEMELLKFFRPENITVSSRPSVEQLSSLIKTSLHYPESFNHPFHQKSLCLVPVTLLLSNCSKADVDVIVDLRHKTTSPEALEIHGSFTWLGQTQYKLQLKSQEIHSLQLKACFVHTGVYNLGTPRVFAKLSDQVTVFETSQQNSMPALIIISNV
UniProt Q5JTV8: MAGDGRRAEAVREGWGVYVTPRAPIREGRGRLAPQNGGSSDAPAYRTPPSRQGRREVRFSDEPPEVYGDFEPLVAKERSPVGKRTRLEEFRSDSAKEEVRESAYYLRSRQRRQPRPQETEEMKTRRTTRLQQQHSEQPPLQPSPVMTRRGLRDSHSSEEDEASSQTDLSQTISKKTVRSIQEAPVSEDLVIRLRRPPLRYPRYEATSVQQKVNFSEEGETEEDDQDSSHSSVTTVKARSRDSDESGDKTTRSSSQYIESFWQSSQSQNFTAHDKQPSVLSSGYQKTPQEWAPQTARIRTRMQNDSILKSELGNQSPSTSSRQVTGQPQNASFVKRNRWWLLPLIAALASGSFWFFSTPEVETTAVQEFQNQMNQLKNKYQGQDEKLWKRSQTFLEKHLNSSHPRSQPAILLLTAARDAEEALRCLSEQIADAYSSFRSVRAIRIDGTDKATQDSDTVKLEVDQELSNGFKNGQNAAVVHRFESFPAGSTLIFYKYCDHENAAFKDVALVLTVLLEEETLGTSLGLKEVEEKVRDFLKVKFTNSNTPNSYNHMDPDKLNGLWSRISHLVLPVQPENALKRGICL
UniProt Q12931: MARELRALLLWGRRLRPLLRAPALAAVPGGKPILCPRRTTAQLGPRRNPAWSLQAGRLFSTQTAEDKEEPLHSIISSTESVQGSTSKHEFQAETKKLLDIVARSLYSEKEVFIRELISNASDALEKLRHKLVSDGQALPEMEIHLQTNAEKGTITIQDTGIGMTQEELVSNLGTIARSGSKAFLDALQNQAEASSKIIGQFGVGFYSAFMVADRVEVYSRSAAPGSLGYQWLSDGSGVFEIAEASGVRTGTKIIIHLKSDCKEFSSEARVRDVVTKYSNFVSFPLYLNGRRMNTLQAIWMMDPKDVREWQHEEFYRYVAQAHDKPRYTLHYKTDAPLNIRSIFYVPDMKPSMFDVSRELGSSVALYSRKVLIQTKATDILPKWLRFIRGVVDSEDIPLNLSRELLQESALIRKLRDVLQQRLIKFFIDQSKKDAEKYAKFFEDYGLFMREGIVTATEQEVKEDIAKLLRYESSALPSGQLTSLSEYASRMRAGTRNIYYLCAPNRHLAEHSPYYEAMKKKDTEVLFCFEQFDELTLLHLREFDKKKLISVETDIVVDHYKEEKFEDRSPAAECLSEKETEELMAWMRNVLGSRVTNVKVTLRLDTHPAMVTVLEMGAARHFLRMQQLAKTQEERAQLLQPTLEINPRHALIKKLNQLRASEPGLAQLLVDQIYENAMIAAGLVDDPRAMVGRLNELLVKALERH
UniProt Q53FA7: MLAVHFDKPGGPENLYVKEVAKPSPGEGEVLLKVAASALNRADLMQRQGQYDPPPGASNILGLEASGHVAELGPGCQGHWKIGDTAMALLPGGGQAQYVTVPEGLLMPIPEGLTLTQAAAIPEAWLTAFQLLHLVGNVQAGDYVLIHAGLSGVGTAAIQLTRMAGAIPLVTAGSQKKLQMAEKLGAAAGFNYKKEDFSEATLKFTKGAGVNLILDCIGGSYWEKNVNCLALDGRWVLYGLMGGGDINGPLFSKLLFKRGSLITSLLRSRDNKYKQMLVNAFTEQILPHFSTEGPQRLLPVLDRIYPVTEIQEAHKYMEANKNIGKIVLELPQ
UniProt Q15629: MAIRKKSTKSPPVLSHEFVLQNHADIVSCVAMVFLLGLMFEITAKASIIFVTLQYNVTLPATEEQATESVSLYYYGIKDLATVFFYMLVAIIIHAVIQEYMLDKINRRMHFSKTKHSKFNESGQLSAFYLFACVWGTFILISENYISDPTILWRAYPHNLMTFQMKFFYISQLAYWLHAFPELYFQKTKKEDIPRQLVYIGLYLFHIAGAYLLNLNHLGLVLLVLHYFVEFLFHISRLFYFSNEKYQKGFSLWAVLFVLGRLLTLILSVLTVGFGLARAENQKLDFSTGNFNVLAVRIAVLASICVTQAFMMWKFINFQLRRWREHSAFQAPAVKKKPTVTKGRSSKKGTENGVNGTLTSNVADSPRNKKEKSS
UniProt Q9NXH8: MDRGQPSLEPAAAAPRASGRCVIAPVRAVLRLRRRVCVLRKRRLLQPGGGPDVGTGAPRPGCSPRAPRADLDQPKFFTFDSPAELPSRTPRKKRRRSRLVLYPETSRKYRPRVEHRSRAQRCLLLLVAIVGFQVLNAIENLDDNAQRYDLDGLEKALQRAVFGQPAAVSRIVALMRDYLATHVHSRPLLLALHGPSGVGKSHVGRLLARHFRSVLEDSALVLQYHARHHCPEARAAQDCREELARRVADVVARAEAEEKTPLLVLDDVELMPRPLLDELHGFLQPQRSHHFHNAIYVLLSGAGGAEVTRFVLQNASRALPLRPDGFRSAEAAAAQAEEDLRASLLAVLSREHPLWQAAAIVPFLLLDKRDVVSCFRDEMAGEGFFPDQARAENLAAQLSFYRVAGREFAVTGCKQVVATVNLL
UniProt Q15388, whole entry, looked up: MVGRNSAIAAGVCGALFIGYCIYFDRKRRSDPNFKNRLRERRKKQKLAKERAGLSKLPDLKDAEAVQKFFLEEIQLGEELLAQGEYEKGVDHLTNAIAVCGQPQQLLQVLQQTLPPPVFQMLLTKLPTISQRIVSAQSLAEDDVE
UniProt Q8TBZ6: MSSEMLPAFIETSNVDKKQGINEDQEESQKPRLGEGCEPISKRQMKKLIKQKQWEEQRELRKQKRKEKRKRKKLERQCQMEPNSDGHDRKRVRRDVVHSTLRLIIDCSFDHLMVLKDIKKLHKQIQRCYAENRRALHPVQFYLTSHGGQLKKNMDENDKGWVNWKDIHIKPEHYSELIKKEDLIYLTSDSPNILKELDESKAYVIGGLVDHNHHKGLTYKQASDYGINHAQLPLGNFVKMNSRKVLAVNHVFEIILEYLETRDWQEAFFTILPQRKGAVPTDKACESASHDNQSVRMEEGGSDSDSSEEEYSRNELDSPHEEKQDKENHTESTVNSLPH
UniProt O14787: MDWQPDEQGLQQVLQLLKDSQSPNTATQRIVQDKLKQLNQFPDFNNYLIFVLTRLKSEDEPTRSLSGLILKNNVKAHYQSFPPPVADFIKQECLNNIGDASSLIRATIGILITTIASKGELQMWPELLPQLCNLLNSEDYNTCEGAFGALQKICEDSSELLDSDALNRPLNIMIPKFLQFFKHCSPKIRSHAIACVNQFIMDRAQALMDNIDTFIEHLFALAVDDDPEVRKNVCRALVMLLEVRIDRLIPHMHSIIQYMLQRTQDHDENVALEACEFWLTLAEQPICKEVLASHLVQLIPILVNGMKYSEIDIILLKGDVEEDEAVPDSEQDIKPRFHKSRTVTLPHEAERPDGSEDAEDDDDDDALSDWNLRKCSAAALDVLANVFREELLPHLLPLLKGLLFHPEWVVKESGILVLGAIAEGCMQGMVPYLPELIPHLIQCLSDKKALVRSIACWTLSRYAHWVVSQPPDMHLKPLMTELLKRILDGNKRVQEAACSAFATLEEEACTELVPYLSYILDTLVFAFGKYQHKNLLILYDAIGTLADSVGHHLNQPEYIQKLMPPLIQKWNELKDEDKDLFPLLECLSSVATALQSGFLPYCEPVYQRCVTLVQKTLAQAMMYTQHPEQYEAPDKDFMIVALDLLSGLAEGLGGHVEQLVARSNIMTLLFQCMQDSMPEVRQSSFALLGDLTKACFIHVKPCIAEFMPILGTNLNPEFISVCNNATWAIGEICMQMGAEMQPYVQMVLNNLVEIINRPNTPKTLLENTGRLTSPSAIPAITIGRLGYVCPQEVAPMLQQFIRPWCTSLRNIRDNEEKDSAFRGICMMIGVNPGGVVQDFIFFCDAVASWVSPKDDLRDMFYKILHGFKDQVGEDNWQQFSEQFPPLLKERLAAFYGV

Experiments:
Test in all cases: log2 fold change, soluble protein after heating vs DMSO (PISA); higher = thermal stabilisation; K562 cells, 10 uM, 30 min; active = over 0.2 and 3.5 SD of the protein, either way, in both replicates (recomputed)
[1] = compound: COC1=CC=C(C=C1)CN2C=CC3=C2C=C(C=C3)C(=O)NO
Summary of the method: (§1)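 Values are thermal stability changes relative to control samples and are taken from duplicates. They are stated as log2 fold changes. Before quantification by TMTpro 16plex LC-MS/MS with equalised channel sums, K562 cells at 2×10^6 cells/mL were treated with 10 μM compound for 30 min, heated in aliquots for 3 min across 48°C-58°C, pooled, extracted in PBS with 0.5% NP-40 at 4°C, and centrifuged at 21,000xg for 90 min to give the soluble supernatant.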

filanesib = compound: CON(C)C(=O)N1N=C(c2cc(F)ccc2F)S[C@@]1(CCCN)c1ccccc1 [filanesib]
Summary of the method: as §1

zotarolimus = compound: CO[C@H]1C[C@@H]2CC[C@@H](C)[C@@](O)(O2)C(=O)C(=O)N2CCCC[C@H]2C(=O)O[C@H]([C@H](C)C[C@@H]2CC[C@H](n3cnnn3)[C@H](OC)C2)CC(=O)[C@H](C)/C=C(\C)[C@@H](O)[C@@H](OC)C(=O)[C@H](C)C[C@H](C)/C=C/C=C/C=C/1C [zotarolimus]
Summary of the method: as §1

idasanutlin = compound: COc1cc(C(=O)O)ccc1NC(=O)[C@@H]1N[C@@H](CC(C)(C)C)[C@](C#N)(c2ccc(Cl)cc2F)[C@H]1c1cccc(Cl)c1F [idasanutlin]
Summary of the method: as §1

alisertib = compound: COc1cc(Nc2ncc3c(n2)-c2ccc(Cl)cc2C(c2c(F)cccc2OC)=NC3)ccc1C(=O)O [alisertib]
Summary of the method: as §1

[2] = compound: COc1cc2nc(-c3cc(F)ccc3O)nc(N[C@@H]3CNC[C@H]3C(C)(C)O)c2cc1OC
Summary of the method: as §1

gefitinib = compound: COc1cc2ncnc(Nc3ccc(F)c(Cl)c3)c2cc1OCCCN1CCOCC1 [gefitinib]
Summary of the method: as §1

[3] = compound: COc1cccc2cc(-c3nc([C@H]4CC[C@H](C(=O)O)CC4)n4ncnc(N)c34)[nH]c12
Summary of the method: as §1

lapatinib = compound: CS(=O)(=O)CCNCc1ccc(-c2ccc3ncnc(Nc4ccc(OCc5cccc(F)c5)c(Cl)c4)c3c2)o1 [lapatinib]
Summary of the method: as §1

pictilisib = compound: CS(=O)(=O)N1CCN(Cc2cc3nc(-c4cccc5[nH]ncc45)nc(N4CCOCC4)c3s2)CC1 [pictilisib]
Summary of the method: as §1

[4] = compound: CS(=O)(=O)c1ccc(-c2cnc(N)c(C(=O)Nc3ccccc3)n2)cc1
Summary of the method: as §1

crizotinib = compound: C[C@@H](Oc1cc(-c2cnn(C3CCNCC3)c2)cnc1N)c1c(Cl)ccc(F)c1Cl [crizotinib]
Summary of the method: as §1

[5] = compound: C[C@@H]1COCCN1C2=NC(=NC(=C2)C3(CC3)S(=O)(=O)C)C4=C5C=CNC5=CC=C4
Summary of the method: as §1

[6] = compound: C[C@H](C1=CC=C(C=C1)C(=O)NC2=C3C=CNC3=NC=C2)N
Summary of the method: as §1

duvelisib = compound: C[C@H](Nc1ncnc2nc[nH]c12)c1cc2cccc(Cl)c2c(=O)n1-c1ccccc1 [duvelisib]
Summary of the method: as §1

gandotinib = compound: Cc1cc(Nc2cc(CN3CCOCC3)c3nc(C)c(Cc4ccc(Cl)cc4F)n3n2)n[nH]1 [gandotinib]
Summary of the method: as §1

tozasertib = compound: Cc1cc(Nc2cc(N3CCN(C)CC3)nc(Sc3ccc(NC(=O)C4CC4)cc3)n2)n[nH]1 [tozasertib]
Summary of the method: as §1

[7] = compound: Cc1cc(SCc2sc(-c3ccc(C(F)(F)F)cc3)nc2C)ccc1OCC(=O)O
Summary of the method: as §1

doramapimod = compound: Cc1ccc(-n2nc(C(C)(C)C)cc2NC(=O)Nc2ccc(OCCN3CCOCC3)c3ccccc23)cc1 [doramapimod]
Summary of the method: as §1

ispinesib = compound: Cc1ccc(C(=O)N(CCCN)[C@@H](c2nc3cc(Cl)ccc3c(=O)n2Cc2ccccc2)C(C)C)cc1 [ispinesib]
Summary of the method: as §1

| Target | log2 fold change [1] | log2 fold change (filanesib) | log2 fold change (zotarolimus) | log2 fold change (idasanutlin) | log2 fold change (alisertib) | log2 fold change [2] | log2 fold change (gefitinib) | log2 fold change [3] | log2 fold change (lapatinib) | log2 fold change (pictilisib) | log2 fold change [4] | log2 fold change (crizotinib) | log2 fold change [5] | log2 fold change [6] | log2 fold change (duvelisib) | log2 fold change (gandotinib) | log2 fold change (tozasertib) | log2 fold change [7] | log2 fold change (doramapimod) | log2 fold change (ispinesib) |
| --- | --- | --- | --- | --- | --- | --- | --- | --- | --- | --- | --- | --- | --- | --- | --- | --- | --- | --- | --- | --- |
| TPD52L2 isoform 7 (UniProt O43399) | inactive: 0.012 | inactive: -0.016 | inactive: -0.032 | inactive: 0.004 | inactive: -0.02 | inactive: -0.03 | inactive: 0.003 | inactive: 0.053 | inactive: -0.014 | inactive: 0.035 | inactive: -0.003 | inactive: 0.012 | inactive: 0.02 | inactive: -0.041 | inactive: -0.008 | inactive: 0.007 | inactive: -0.03 | inactive: -0.04 | inactive: 0 | inactive: 0.017 |
| TNIK isoform 6 (UniProt Q9UKE5) | inactive: -0.084 | inactive: -0.004 | inactive: 0.017 | inactive: -0.001 | inactive: -0.054 | inactive: 0.047 | inactive: -0.026 | inactive: 0.025 | inactive: -0.032 | inactive: 0.108 | inactive: -0.053 | inactive: -0.034 | inactive: -0.037 | inactive: -0.034 | inactive: -0.036 | inactive: 0.011 | inactive: -0.033 | inactive: 0.009 | inactive: 0.023 | inactive: -0.048 |
| TRAPPC8 (UniProt Q9Y2L5) | inactive: 0.032 | inactive: -0.017 | inactive: 0.03 | inactive: -0.059 | inactive: 0.003 | inactive: 0.013 | inactive: 0.009 | inactive: -0.021 | inactive: 0.021 | inactive: -0.001 | inactive: 0.036 | inactive: -0.033 | inactive: -0.008 | inactive: 0.032 | – | inactive: -0.056 | – | inactive: 0.117 | inactive: -0.012 | inactive: -0.138 |
| TPP1 (UniProt O14773) | inactive: 0.024 | inactive: -0.175 | inactive: 0 | inactive: -0.008 | inactive: 0.168 | inactive: -0.072 | inactive: -0.039 | inactive: 0.087 | inactive: -0.026 | inactive: 0.011 | inactive: 0.025 | active: -0.371 | inactive: 0.022 | inactive: -0.026 | – | inactive: 0.049 | – | inactive: -0.016 | inactive: 0.008 | inactive: -0.189 |
| TOR1AIP1 (UniProt Q5JTV8) | inactive: 0.028 | inactive: -0.051 | inactive: -0.012 | inactive: 0.018 | inactive: -0.141 | inactive: 0.121 | inactive: -0.052 | inactive: 0.015 | inactive: -0.103 | inactive: 0.064 | inactive: 0.063 | inactive: 0.017 | inactive: -0.071 | inactive: -0.004 | inactive: 0.104 | inactive: 0.077 | – | inactive: -0.028 | inactive: -0.138 | inactive: -0.082 |
| TPR (UniProt P12270) | inactive: -0.048 | inactive: 0.115 | inactive: 0.049 | inactive: 0.055 | inactive: -0.076 | inactive: 0.065 | inactive: -0.056 | inactive: -0.06 | inactive: 0.044 | inactive: 0.036 | inactive: -0.03 | active: 0.297 | inactive: 0.013 | inactive: -0.083 | – | inactive: 0.008 | active: 0.349 | inactive: -0.027 | inactive: 0.037 | inactive: 0.223 |
| TRAP1 (UniProt Q12931) | inactive: 0.039 | inactive: -0.052 | inactive: -0.004 | inactive: -0.038 | inactive: -0.048 | inactive: -0.022 | inactive: 0.012 | inactive: 0.073 | inactive: -0.029 | inactive: -0.005 | inactive: -0.011 | inactive: 0.048 | inactive: -0.001 | inactive: -0.084 | inactive: 0.019 | inactive: -0.019 | inactive: 0.001 | inactive: -0.003 | inactive: -0.025 | inactive: -0.034 |
| TP53I3 (UniProt Q53FA7) | inactive: 0.013 | inactive: 0 | inactive: -0.005 | inactive: -0.008 | inactive: -0.058 | inactive: 0.023 | inactive: 0.008 | inactive: 0.061 | inactive: 0.003 | inactive: -0.012 | inactive: 0.055 | inactive: 0.042 | inactive: -0.066 | inactive: -0.087 | inactive: -0.016 | inactive: 0.081 | inactive: -0.022 | inactive: -0.095 | inactive: 0.03 | inactive: -0.007 |
| TRAM1 (UniProt Q15629) | inactive: -0.188 | inactive: -0.218 | inactive: -0.103 | inactive: -0.119 | inactive: -0.067 | inactive: 0.24 | inactive: -0.066 | inactive: 0.005 | inactive: -0.092 | inactive: -0.163 | inactive: 0.075 | active: -0.587 | inactive: 0.017 | inactive: 0.014 | – | active: -0.47 | – | inactive: 0.09 | inactive: -0.119 | active: -0.964 |
| TNPO1 (UniProt Q92973) | inactive: -0.008 | inactive: -0.096 | inactive: 0.012 | inactive: -0.023 | inactive: -0.074 | inactive: -0.156 | inactive: -0.001 | inactive: -0.012 | inactive: -0.005 | inactive: -0.02 | inactive: -0.008 | inactive: -0.034 | inactive: 0.058 | inactive: -0.116 | – | inactive: -0.128 | – | inactive: 0.011 | inactive: -0.034 | inactive: -0.113 |
| TRAPPC9 isoform 2 (UniProt Q96Q05) | inactive: 0.006 | inactive: -0.047 | inactive: 0.027 | inactive: 0.047 | inactive: -0.013 | inactive: -0.06 | inactive: -0.018 | inactive: 0.04 | inactive: 0.041 | inactive: -0.047 | inactive: 0.05 | inactive: -0.096 | inactive: 0.033 | inactive: 0.017 | inactive: 0.04 | inactive: -0.049 | inactive: 0.038 | inactive: 0.001 | inactive: 0.031 | inactive: -0.014 |
| TOR4A (UniProt Q9NXH8) | inactive: 0.106 | inactive: 0.129 | inactive: 0.053 | inactive: 0.05 | inactive: -0.174 | inactive: 0.009 | inactive: 0.018 | inactive: -0.076 | inactive: 0.106 | inactive: 0.009 | inactive: 0.018 | inactive: 0.133 | inactive: -0.109 | inactive: 0.131 | inactive: 0 | inactive: 0.113 | inactive: 0.037 | inactive: -0.034 | inactive: 0.03 | inactive: -0.053 |
| TRAPPC2L (UniProt Q9UL33) | inactive: -0.102 | inactive: -0.05 | inactive: 0.098 | inactive: -0.026 | inactive: -0.029 | inactive: 0.03 | inactive: 0 | inactive: -0.062 | inactive: 0.088 | inactive: -0.018 | inactive: 0.009 | inactive: -0.035 | inactive: 0.054 | inactive: 0.035 | – | inactive: -0.023 | – | inactive: 0.001 | inactive: -0.143 | inactive: 0.119 |
| TOMM20 (UniProt Q15388) | inactive: -0.011 | inactive: -0.213 | inactive: 0.005 | inactive: -0.022 | inactive: -0.029 | inactive: -0.25 | inactive: 0.005 | inactive: -0.001 | inactive: 0.045 | inactive: 0.007 | inactive: -0.068 | inactive: -0.019 | inactive: 0.058 | inactive: -0.06 | – | inactive: 0.116 | – | inactive: -0.062 | inactive: -0.025 | active: -0.358 |
| TRMT10A (UniProt Q8TBZ6) | inactive: -0.195 | inactive: -0.134 | inactive: 0.054 | inactive: -0.081 | inactive: 0.048 | inactive: -0.006 | inactive: -0.025 | inactive: 0.028 | inactive: 0.03 | inactive: 0.093 | inactive: 0.012 | inactive: 0.01 | inactive: 0.093 | inactive: -0.072 | – | inactive: 0 | – | inactive: 0.016 | inactive: -0.023 | inactive: 0.028 |
| TRIM38 (UniProt O00635) | inactive: -0.289 | inactive: 0.211 | inactive: -0.029 | inactive: 0.017 | inactive: -0.059 | inactive: 0.009 | inactive: 0.005 | inactive: 0.049 | inactive: -0.163 | inactive: 0.433 | inactive: -0.211 | inactive: 0.142 | inactive: 0.026 | inactive: 0.225 | inactive: 0.123 | inactive: 0.024 | – | inactive: 0.046 | inactive: -0.056 | – |
| TNPO2 (UniProt O14787) | inactive: -0.022 | inactive: -0.005 | inactive: 0.065 | inactive: -0.194 | inactive: -0.071 | inactive: -0.069 | inactive: 0.027 | inactive: -0.038 | inactive: -0.048 | inactive: -0.076 | inactive: 0.019 | inactive: -0.153 | inactive: 0.046 | inactive: -0.037 | – | inactive: -0.059 | – | inactive: 0.048 | inactive: 0.011 | inactive: -0.14 |
